The values that follow come from US20180148504A1.

Results are given in words; binding and its absence hold for the method and conditions named. A result given as binding can be weak or reduced; the word gives no strength.

For test [1], the target named is recombinant human folate receptor alpha (rhFRα) (human). As to the kind of experiment: direct ELISA on plate-coated FRα, hybridoma supernatants. (In general: In an ELISA, binding on a coated surface is turned into a signal by an enzyme label.)
In test [2] the target is recombinant purified FRα (ECL assay calibrator) (human). As to the kind of experiment: ECL sandwich standard curve, FRα calibrator titrated; capture 9F3; binder = detection Ab.
Test [3] has the same target. As to the kind of experiment: ECL sandwich pair screening, calibrator and serum samples.
Test [4] has the same target. As to the kind of experiment: ECL sandwich standard curve, FRα calibrator titrated; binder = capture Ab; detection 1A8.G11.E7, 24H8.D3, 19D2.G9, 19D4.B7 listed in the legend, not separable.
Test [5] shares this target. In words: ECL sandwich standard curve on FRα calibrator.

B1: Monoclonal antibody 6A2.G7 (antibody, mouse IgG1, V domains shown)
VH: GADLVKPGASVKMSCKASGYTFSRYNMHWVKQTPGQGLEWIGTIYPGNGDTSYNEKFKGKATLTADKSSSIVYMQVSSLTSEASAVYYCARDYGSRYALDYWGQGTSVTVSS
VL: SSLSASLGDRVTISCRASQDISNYLNWYQQKPDGTVKLLIYYTSRLHSGVPSRFSGSGSGTDYSLTISNLEQEDIATYFCQQGNTLPYTFGGGTKLEIK
Consider B1, for which the binding entry in test [1] is listed as “binds”.

B2: Monoclonal antibody 24H8.D3 (antibody, mouse IgG1, V domains shown)
VH: QVQLKESGPGLVAPSQSLSITCTVSGFSLTSYGVSWVRQPPGKGLEWLGVIWGDGSTNYHSTLISRLSISKDNSKSQVFLKLNSLQTDDTATYYCAKPHPAATGAMDYWGQGTSVTVSS
VL: DIQMTQTTSSLSASLGDRVTISCRASQDISNHLNWYQQKPDGTIKLLIYYTSKLHSGVPSRFSGSGSGTDYSLTISNLEQEDIATYFCQQGNTLWTFGGGTKLEIK
With B2, the binding entry in test [2], in test [3], in test [4], in test [1] and in test [5] was “binds” each time.

B3: Monoclonal antibody 1A8.G11.E7 (antibody, mouse IgG1, V domains shown)
VH: ESGPGLVAPSQSLSITCTVSGFSLTSYGVSWVRQPPGKGLEWLGVIWGDGSTNYHSTLISRLSISKDNSKSQVFLKLNSLQTDDTATYYCAKPHPAATGAMDYWGQGTSVTVSS
VL: TQTTSSLSASLGDRVTISCRASQDISNHLNWYQQKPDGTVKLLIYYTSRLHSGVPSRFSGSGSGTDYSLTISNLEQEDIATYFCQQGNTLWTFGGGTKLEIK
As for B3, the binding result in test [2], in test [4] and in test [1] was “binds” each time.

B4: Monoclonal antibody 19D4.B7 (antibody, mouse IgG2a, V domains shown)
VH: GARELVKPGASVKLSCTASGFNIKHPYMHWVKQRPDQGLEWIGRIDPANGNTKYDPKFQGKATITADTSSNTAYLQLSSLTSEDTAVYYCGREEVADYTMDYWGQGTSVTVSS
VL: PASLAVSLGQRATISCRASESVDTYGNNFIHWYQQKPGQPPKLLIYLASNLESGVPARFSGSGSRTDFTLTIDPVEADDAATYYCQQNNGDPWTFGGGTKLEIKR
B4: the binding result in test [2], in test [4] and in test [5] was “binds” each time.

B5: Monoclonal antibody 24H8.F3 (antibody, mouse IgG1, V domains shown)
VH: GPGLVAPSQSLSITCTVSGFSLTSYGVSWVRQPPGKGLEWLGVIWGDGSTNYHSTLISRLSISKDNSKSQVFLKLNSLQTDDTATYYCAKPHPAATGAMDYWGQGTSVTVSS
VL: TTSSLSASLGDRVTISCRASQDISNHLNWYQQKPDGTIKLLIYYTSKLHSGVPSRFSGSGSGTDYSLTISNLEQEDIATYFCQQGNTLWTFGGGTKLEIK
On to B5, for which the binding result in test [1] is reported as “binds”.

B6: Monoclonal antibody 1D2.D8.G10 (antibody, mouse IgG1, V domains shown)
VH: QSGTVLARPGASVKMSCKASGYSFTSNWMHWIKQRPGQGLEWIGAIYPGNSDTSYNQKFKGKAKLTAVTSASTAYMELSSLTNEDSAVYHCTRGDGSSFWYFDVWGAGTTVTVSS
VL: QSPASLVVSLGQRATISCRASKSVSTSGYSYMYWYQQKSGQPPKLLIYLASNLESGVPARFSGGGSGTDFTLNIHPVEEEDAATYYCQQSRELPPTFGGGTKLEIK
In the case of B6, the binding entry in test [1] is listed as “binds”.

B7: Monoclonal antibody 26A9.C4 (antibody, mouse IgG1, V domains shown)
VH: SGARELVKPGASVKLSCKTSGFTFSSSFISWLKQKPGQSLEWIAWIYGGNGGTSYNQNFTGKAQLTVDTSSSTAYMQFSSLTTEDSAVYYCASETYGNYWYFDVWGAGTTVTVSS
VL: QSPASLSASVGDTVTITCRASGNIHNYLAWYQQKQGKSPQLLVYNAKTLADGVPSRFSGSGSGTQYSLKINSLQPEDFGNYYCQHFWSTPYTFGGGTKLEIK
For B7, in test [1], the binding result was “binds”.

B8: Monoclonal antibody 1C6.E12.G8 (antibody, mouse IgG1, V domains shown)
VH: SGARELVKPGASVKLSCKTSGFTFNSSYITWLKQKPGQSLEWIAWIYAGNGGTTYNQKFTGKAQLTVDTSSSTAYMQFSSLTTEDSAIYYCASETYTNYWYFDVWGSGTTVTVSS
VL: QSPASLSASVGETVTITCRASGNIHNYLAWYQQKQGKSPQLLVYNAKTLADGVPSRFSGSGSGTQYSLKINSLQPEDFGSYYCQHFWSTPYTFGGGTKLEIK
Consider B8, for which, in test [1], the binding entry is reported as “binds”.
